Measured values taken from patent US20230390283A1, “USES OF CHK2 INHIBITORS” (The University of Birmingham, priority 2020, published 2023).
For part of these data: At least one compound was matched to its structure with a doubt left. Some of these results come from one statement about several compounds together.

Tests used:
[1] = tested on: RGC; test: Optic neuritis model: RGC survival (Fluorgold backfilled wholemounts); format: in vivo, mice; details: 21 days after induction
Experimental: Induction of optic neuritis. […] Animals were intraperitoneally injected with 150 ng Bordetella pertussis toxin on day 0 and 2. Animals were monitored daily and assessed for the development of EAE. At the end of the experiment, animals were then killed by CO2 overdose.
(§1) Assessment of RGC survival.

[2] = tested on: RGC; test: Glaucoma model: RGC survival in retinal wholemounts; format: in vivo, rat; details: 30 days after induction of glaucoma
Experimental: Induction of glaucoma. […] At day zero, a self-sealing incision was made though the cornea into the anterior chamber enabling twice weekly intracameral injections of 3.5 μl of TGFβ2 (5 ng/μl) using glass micropipettes for 30 days. Vehicle, comprising saline, was injected in control groups. Intraocular pressure was measured using an iCare Tonolab rebound tonometer (Icare, Helsinki, Finland).
as §1

Q: Which “RGC protected from death in optic neuritis” value [1] does the source give for `N=C1NC(=O)/C(=C/c2ccc(O)cc2)S1` [mirin] here?
A: > 96%

Q: And the “RGC protected from death in glaucoma” value [2]?
A: > 98%

Q: What about the “RGC survival in glaucoma” value [2] of the same compound?
A: enhanced RGC survival
